PubChem BioAssay AID720505 | Drosophila RNAi Screening Center, 2013

Screen: 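Fly regulators or components of the CRAC channel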 (primary screen)
System: Drosophila S2R+ cells
Knock-down reagent: long dsRNA against Drosophila genes
Treatment: thapsigargin (2 µM) in calcium-free buffer to empty internal stores, then 2 mM calcium added back
Read-out: 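Stores emptied by 2 µM thapsigargin without calcium, then 2 mM calcium re-added; fluo-4 fluorescence followed by FLIPR in 384-well plates, per-well averaged endpoint, raw; two screen passes, some wells retested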
Scale: calcium signal and retest calcium signal: higher = more calcium entry after store depletion
Call rule: 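About 1500 genes called as lowering calcium entry, by varying amounts, judged against per-plate control wells with STIM1 as positive and Rho1 as negative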
Calls: active = called as lowering calcium entry; inactive = not called
The screen tested about 20,000 reagents; this is an unselected part of those that have a named target and a result. In the full data, about 2,100 (10%) are marked active. 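Raw plate signals without normalisation; calls rest on control-based scores that were not deposited; replicate 2 separates called from uncalled poorly.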 Not stated in the record: the amount of reagent, the time to read-out.

| target | PubChem SID | calcium signal, replicate 1 | calcium signal, replicate 2 | retest calcium signal, replicate 1 | retest calcium signal, replicate 2 | outcome |
| --- | --- | --- | --- | --- | --- | --- |
| Pif2 | SID104192317 | 125 | 158 | – | – | inactive |
| png | SID104198374 | 43.9 | 114 | – | – | active |
| CG4049 | SID104184235 | 106 | 130 | – | – | inactive |
| aop | SID104180593 | 142 | 133 | – | – | inactive |
| aop | SID104202356 | 108 | 141 | – | – | inactive |
| eIF6 | SID104184466 | 73.7 | 73.4 | – | – | inactive |
| CG13460 | SID104189799 | 104 | 206 | – | – | inactive |
| CG31673 | SID104182999 | 95.9 | 126 | – | – | inactive |
| akirin | SID104190792 | 103 | 146 | – | – | inactive |
| Marcal1 | SID104182510 | 147 | 112 | – | – | inactive |
| eIF5B | SID104188221 | 93.9 | 116 | – | – | inactive |
| eIF5B | SID104188502 | 72.3 | 97 | – | – | inactive |
| CG12507 | SID104199255 | 78.2 | 136 | – | – | inactive |
| GIIIspla2 | SID104197886 | 136 | 82.2 | – | – | inactive |
| rho-4 | SID104199553 | 183 | 104 | – | – | inactive |
| rho-4 | SID104199554 | 114 | 91.6 | – | – | inactive |
| ND-49 | SID104196943 | 118 | 155 | – | – | inactive |
| CG15036 | SID104197760 | 287 | 74 | – | – | inactive |
| Nipped-A | SID104184674 | 136 | 97.2 | 86.8 | 116 | inactive |
| Nipped-A | SID104184675 | 99.8 | 126 | – | – | inactive |
| Nipped-A | SID104184676 | 163 | 170 | – | – | inactive |
| Nipped-A | SID104187530 | 112 | 144 | – | – | inactive |
| Nipped-A | SID104201865 | 81.3 | 243 | – | – | inactive |
| Alg7 | SID104182625 | 98.4 | 108 | – | – | inactive |
| Alg7 | SID104182626 | 103 | 83.1 | – | – | inactive |
| CG14130 | SID104189926 | 57.7 | 55.8 | – | – | active |
| Ugt302C1 | SID104195145 | 123 | 158 | – | – | inactive |
| CG7772 | SID104199848 | 176 | 107 | – | – | inactive |
| SIDL | SID104195869 | 114 | 139 | – | – | inactive |
| klu | SID104191149 | 67.3 | 35.8 | – | – | active |
| CG2145 | SID104199627 | 101 | 66.2 | – | – | inactive |
| Ac76E | SID104189454 | 94.2 | 90.5 | – | – | inactive |

Next part; the last 3 above are carried over.
| target | PubChem SID | calcium signal, replicate 1 | calcium signal, replicate 2 | retest calcium signal, replicate 1 | retest calcium signal, replicate 2 | outcome |
| --- | --- | --- | --- | --- | --- | --- |
| klu | SID104191149 | 67.3 | 35.8 | – | – | active |
| CG2145 | SID104199627 | 101 | 66.2 | – | – | inactive |
| Ac76E | SID104189454 | 94.2 | 90.5 | – | – | inactive |
| natalisin | SID104194758 | 121 | 68.8 | – | – | inactive |
| natalisin | SID104194759 | 95.8 | 127 | – | – | inactive |
| CG34051 | SID104181531 | 79.1 | 5154 | 5281 | 110 | inactive |
| Fancm | SID104196140 | 110 | 157 | – | – | inactive |
| CG42471 | SID104181002 | 122 | 154 | – | – | active |
| CG3847 | SID104197236 | – | – | – | – | active |
| CG3847 | SID104198119 | 75 | 115 | – | – | inactive |
| aos | SID104191115 | 93.1 | 178 | – | – | inactive |
| verm | SID104190830 | 113 | 121 | – | – | inactive |
| CG8891 | SID104182912 | 170 | 116 | – | – | inactive |
| CG1537 | SID104199454 | 116 | 90.6 | – | – | inactive |
| PAN3 | SID104187982 | 66 | 89.5 | – | – | active |
| Tsen2 | SID104181349 | 112 | 99.2 | – | – | inactive |
| CG8170 | SID104186879 | 172 | 140 | – | – | inactive |
| CG13895 | SID104188157 | 89.4 | 74.6 | – | – | inactive |
| CG34188 | SID104185341 | 79.3 | 105 | – | – | inactive |
| Trx2 | SID104183414 | 168 | 188 | – | – | inactive |
| CG31038 | SID104194843 | 115 | 97.5 | – | – | inactive |
| CG31038 | SID104196118 | 138 | 149 | – | – | inactive |
| CG31038 | SID104196119 | 145 | 186 | – | – | inactive |
| Sap-r | SID104196641 | 113 | 140 | 6286 | 160 | inactive |
| Sap-r | SID104201540 | 82.4 | 240 | – | – | inactive |
| Tre1 | SID104198518 | 182 | 127 | – | – | inactive |
| CG10055 | SID104192295 | 115 | 137 | – | – | inactive |
| Dd | SID104200331 | 219 | 164 | – | – | inactive |
| disco | SID104200115 | 94.5 | 113 | – | – | inactive |
| CG12078 | SID104188034 | 93.9 | 103 | – | – | inactive |
| CG13077 | SID104181973 | 61.1 | 167 | – | – | inactive |
| CG3819 | SID104190170 | 52.7 | 74.7 | – | – | active |
| CG3520 | SID104184175 | 168 | 202 | – | – | inactive |
| RhoGAP1A | SID104200441 | 74.4 | 174 | – | – | active |
| RhoGAP1A | SID104200443 | 205 | 94.9 | – | – | inactive |
| CG6785 | SID104182785 | 114 | 72 | – | – | inactive |
| CG4615 | SID104198168 | 73.1 | 122 | – | – | active |
| Ank | SID104196919 | 107 | 104 | – | – | inactive |
| Gas8 | SID104202243 | 104 | 149 | – | – | inactive |
| CG3517 | SID104195284 | 156 | 112 | – | – | inactive |
| CG5160 | SID104182613 | 66.9 | 167 | – | – | active |
| Hs3st-A | SID104186299 | 142 | 84.9 | – | – | inactive |
| Hs3st-A | SID104186300 | 155 | 144 | – | – | inactive |
| Hs3st-A | SID104186301 | 166 | 147 | – | – | inactive |
| CG16953 | SID104194959 | 172 | 315 | – | – | inactive |
| CG4582 | SID104195397 | 122 | 77.9 | – | – | inactive |
| CG32053 | SID104190475 | 90.3 | 105 | – | – | inactive |
| CG1894 | SID104195188 | 161 | 138 | – | – | inactive |
| CG3701 (retired record) | SID104184200 | 79.1 | 143 | – | – | inactive |
| CG3701 (retired record) | SID104184201 | 74.7 | 113 | – | – | inactive |
| D2hgdh | SID104198369 | 119 | 152 | – | – | inactive |
| Atg12 | SID104189595 | 43.7 | 97.6 | – | – | active |
| CG7881 | SID104184690 | 109 | 165 | – | – | inactive |
| Cdc14 | SID104182805 | 100 | 162 | – | – | inactive |
